Data as given in PubChem BioAssay AID1259254 (NCATS, 2017)
This is a random part of about 59,000 reagents. About 1,550 of them (2.6%) count as active. 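G2 share is only a proxy for re-replication; each gene was hit by three separate siRNAs, and active genes were retested.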 Raw values are not corrected between plates. A number with no mark means an inactive call. Reagents against one gene are numbered here. Reagent sequences are not shown. Not stated in the record: the amount of reagent.

Test: 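Gene knock-downs that lead to re-replication, shown by excess G2 DNA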 (primary screen)
Cell system: human HCT116 colorectal cancer cells
Reagents: single siRNA against human genes
Time to read-out: 3 days
Measured: 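Nuclei stained with Hoechst and imaged; cell-cycle phase assigned by DNA content; G2 share scaled per plate, non-targeting siRNA 0%, GMNN siRNA 100%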
Direction: G2 robust z-score and G2 cells, % of GMNN control: higher = more G2 cells, more excess DNA replication; raw share of cells in G2: higher = larger share of cells with G2 DNA content
Active means: 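An siRNA counts as active if its G2 robust z-score lies at least 5 MADs above the screen median; here such calls match roughly 38% of GMNN control or more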

| gene | reagent no. | G2 robust z-score | G2 cells, % of GMNN control | raw share of cells in G2 (%) |
| --- | --- | --- | --- | --- |
| POLR3G (RNA polymerase III subunit G) | 1 | 1.76 | 15.3 | 12.5 |
| POLR3G (RNA polymerase III subunit G) | 2 | 0.56 | 6.91 | 6.08 |
| POLR3G (RNA polymerase III subunit G) | 3 | -0.173 | 1.75 | 6.46 |
| SGCA (sarcoglycan alpha) | 1 | 0.183 | 4.25 | 5.15 |
| SGCA (sarcoglycan alpha) | 2 | 0.746 | 8.22 | 8.7 |
| SGCA (sarcoglycan alpha) | 3 | 0.0436 | 3.27 | 4.3 |
| PRMT7 (protein arginine methyltransferase 7) | 1 | 1.73 | 15.1 | 12.8 |
| PRMT7 (protein arginine methyltransferase 7) | 2 | -0.804 | -2.69 | 3.25 |
| PRMT7 (protein arginine methyltransferase 7) | 3 | 1.06 | 10.5 | 7.81 |
| SNX22 (sorting nexin 22) | 1 | -0.436 | -0.0998 | 4.4 |
| SNX22 (sorting nexin 22) | 2 | 4.5 | 34.6 | 19.4 |
| SNX22 (sorting nexin 22) | 3 | 0.576 | 7.02 | 4.3 |
| HCN1 | 1 | -0.47 | -0.338 | 5.17 |
| HCN1 | 2 | 6.55 (active) | 49 | 21.4 |
| HCN1 | 3 | -0.693 | -1.91 | 3.63 |

Next part; the last 2 above are carried over.
| gene | reagent no. | G2 robust z-score | G2 cells, % of GMNN control | raw share of cells in G2 (%) |
| --- | --- | --- | --- | --- |
| HCN1 | 2 | 6.55 (active) | 49 | 21.4 |
| HCN1 | 3 | -0.693 | -1.91 | 3.63 |
| HMCES (5-hydroxymethylcytosine binding, ES cell specific) | 1 | -0.774 | -2.48 | 3.37 |
| HMCES (5-hydroxymethylcytosine binding, ES cell specific) | 2 | -0.641 | -1.54 | 3.72 |
| HMCES (5-hydroxymethylcytosine binding, ES cell specific) | 3 | -0.749 | -2.3 | 2.3 |
| MYB (MYB proto-oncogene, transcription factor) | 1 | 2.96 | 23.8 | 11 |
| MYB (MYB proto-oncogene, transcription factor) | 2 | 0.365 | 5.54 | 7.5 |
| MYB (MYB proto-oncogene, transcription factor) | 3 | -0.595 | -1.22 | 4.99 |
| TERF1P2 (TERF1 pseudogene 2) | 1 | 0.0679 | 3.45 | 5.08 |
| TERF1P2 (TERF1 pseudogene 2) | 2 | 0.125 | 3.85 | 4.65 |
| TERF1P2 (TERF1 pseudogene 2) | 3 | -0.988 | -3.98 | 1.78 |
| AMMECR1L (AMMECR1 like) | 1 | -0.616 | -1.37 | 3.65 |
| AMMECR1L (AMMECR1 like) | 2 | 0.522 | 6.64 | 5.43 |
| AMMECR1L (AMMECR1 like) | 3 | -0.0445 | 2.65 | 3.21 |
| EFCAB14 (EF-hand calcium binding domain 14) | 1 | -0.428 | -0.0425 | 5.31 |
| EFCAB14 (EF-hand calcium binding domain 14) | 2 | 2.67 | 21.8 | 13 |
| EFCAB14 (EF-hand calcium binding domain 14) | 3 | 3.17 | 25.3 | 12.6 |
